No constants are given. Whether binding was seen depends on the method and setting. In cells and extracts the contact can be indirect. Some results given as binding are weak or reduced against the parent protein; the word gives no strength.

Chains of the proteins cited; added tags and fusions are not shown. Residues count along the entry.
UniProt O00206, residues 24-839: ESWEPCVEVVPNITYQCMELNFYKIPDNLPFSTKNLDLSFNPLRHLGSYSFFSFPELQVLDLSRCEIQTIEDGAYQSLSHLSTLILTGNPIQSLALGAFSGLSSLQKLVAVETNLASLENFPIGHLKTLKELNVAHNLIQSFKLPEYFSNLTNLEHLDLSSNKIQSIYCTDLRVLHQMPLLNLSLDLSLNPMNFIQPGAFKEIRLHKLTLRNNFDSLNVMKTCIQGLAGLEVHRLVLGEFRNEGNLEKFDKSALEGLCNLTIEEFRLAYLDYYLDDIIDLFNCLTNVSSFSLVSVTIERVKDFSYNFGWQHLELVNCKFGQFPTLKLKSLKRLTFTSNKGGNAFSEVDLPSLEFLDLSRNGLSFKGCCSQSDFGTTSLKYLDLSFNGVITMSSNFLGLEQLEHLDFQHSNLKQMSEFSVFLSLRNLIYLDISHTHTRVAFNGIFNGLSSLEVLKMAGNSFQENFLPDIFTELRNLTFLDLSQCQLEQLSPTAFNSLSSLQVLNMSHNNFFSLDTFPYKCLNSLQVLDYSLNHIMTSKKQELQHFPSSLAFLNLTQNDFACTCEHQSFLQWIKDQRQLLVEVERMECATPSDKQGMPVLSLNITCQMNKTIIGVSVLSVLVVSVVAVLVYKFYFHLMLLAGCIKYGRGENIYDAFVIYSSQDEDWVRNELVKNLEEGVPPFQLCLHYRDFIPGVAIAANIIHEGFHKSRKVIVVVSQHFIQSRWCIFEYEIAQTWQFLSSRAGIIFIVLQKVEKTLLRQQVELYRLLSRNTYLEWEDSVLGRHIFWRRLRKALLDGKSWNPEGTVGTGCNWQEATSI
UniProt Q14314, residues 24-439: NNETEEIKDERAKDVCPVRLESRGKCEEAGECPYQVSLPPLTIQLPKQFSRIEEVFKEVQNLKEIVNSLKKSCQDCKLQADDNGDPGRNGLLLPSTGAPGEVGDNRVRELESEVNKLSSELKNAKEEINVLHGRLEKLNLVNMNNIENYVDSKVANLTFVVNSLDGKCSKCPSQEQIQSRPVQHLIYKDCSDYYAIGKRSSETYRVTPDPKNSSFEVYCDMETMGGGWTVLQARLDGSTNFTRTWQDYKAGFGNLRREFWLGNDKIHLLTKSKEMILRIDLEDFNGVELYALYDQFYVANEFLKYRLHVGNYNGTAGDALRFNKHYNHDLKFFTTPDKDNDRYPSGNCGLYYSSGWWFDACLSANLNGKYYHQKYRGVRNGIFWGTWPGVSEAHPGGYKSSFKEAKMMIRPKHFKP

Drawing on paper PMC7449923, this text covers binding for one substance.

In this test the target is Toll-like receptor 4 (human (endogenous in THP-1)) (UniProt O00206). The experiment in a line: co-IP; lysates of THP-1 cells differentiated with PMA for 24 hours and stimulated with LPS (100 ng/ml) or FFA (800 umol/L) for 24 hours; incubated with antibody against fgl2 or TLR4 at 4°C overnight, IP & CoIP kit; western blotting; rabbit IgG and mouse IgG as control antibodies. (A western blot detects proteins with antibodies after separation by electrophoresis.)

Consider “Fibrinogen-like protein 2 (from UniProt Q14314 24-439)”, for which the binding result is listed as “binds”.
